According to publication PMC3409120:

Target: Schistosoma japonicum Argonaute protein Ago2 (native SjAgo2) (S. japonicum (endogenous in adult worms))
Experiment: affinity purification with mass spectrometry; native SjAgo2 captured from SWAP by mAb 27A9, 10% SDS-PAGE, bands excised, Orbitrap MS; second assay with sequential mock beads, normal mouse IgG and 27A9

B1: paramyosin (PMY) (protein, UniProt Q05870 1-866)
chain: MMNHDTESHVKISRTIYRGVSPSTTRLESRVRELEDILDLERDARVRAERHAADLSYQVDALSERLDEAGGSTTQTQELLKRREMEINKLRKDLENANASLELAETSMRRRHQTALNELSLEVENLQKQKGKAEKDKSHLIMEVDNVLGQLDGALKAKQSAESKLEGLDSQLNRLKTLTDDLQRQLTELNNAKSRLTSENFELLHINQDYEAQILNYSKAKSSLESQVDDLKRSLDDESRNRFNLQAQLTSLQMDYDNLQAKYDEESEEASNLRNQVSKFNADIAALKSKFERELMSKTEEFEEMKRKLTMRITELEDVAERERLKAVSLEKLKTKLTLEIKDLQSEIESLSLENGELIRRAKSAESLASELQRRVDELTIEVNTLTSQNNQLESENMRLKSLVNDLTDKNNALERENRQMNDQVKELKSSLRDANRRLTDLEALRSQLEAERDNLASALHDAEEALRDMDQKYQASQAALNHLKSEMEQRLRERDEELESLRKSTTRTIEELTVTITEMEVKYKSELSRLKKRYESSIADLEIQLDATNKANANLMKENKNLAQRVKDLETFLDDERRLREAAENNLQITEHKRIQLANEVEELRSAMENLERLRKHAETELEETQSRVSELTIQVNTLSNDKRRLEGDIGVMQADMDDAINAKQAAEDRATRLNNEVLRLADELRQEQENYKHAEALRKQLEIEIREITVKLEEAEAFATREGRRMVQKLQARVRELEAEFDGESRRCKDALAQARKFERQYKELQTQAEDDRRMVLELQDLLDKTQMKMKAYKRQLEEMEEVSQITMNKYRKAQQQIEEAEHRADMAERTVTVRRVGPGGRAVSVARELSVTSNRGMRATSMM
  binding: no binding

Results are given in words; binding and its absence hold for the method and conditions named. In cells and extracts the contact can be indirect. These calls come from enrichment with a bait or labelling near it, and not all partners need be listed. A no says only that the protein was not detected with the bait.
